Source: PubChem BioAssay AID743255 (National Center for Advancing Translational Sciences (NCATS), 2014)
Hit rate of the full screen: of about 390,000 compounds, about 910 (0.23%) were called active. The inconclusive results got no clear call from the source; some entries with a clear call stand among them for comparison. The call rests on the fitted dose curve; in most records, active means well fitted inhibition curve with a large enough effect; inconclusive means small, poorly fitted or top-dose-only effect; inactive means no such curve, though single readings can be large or run the other way. Where the call is inconclusive, the potency comes from a doubtful curve fit.

Amino acid sequences for entries named in this document (tags omitted). A change or cut given only in a name is not applied to a line headed by its entry.
UniProt O94782: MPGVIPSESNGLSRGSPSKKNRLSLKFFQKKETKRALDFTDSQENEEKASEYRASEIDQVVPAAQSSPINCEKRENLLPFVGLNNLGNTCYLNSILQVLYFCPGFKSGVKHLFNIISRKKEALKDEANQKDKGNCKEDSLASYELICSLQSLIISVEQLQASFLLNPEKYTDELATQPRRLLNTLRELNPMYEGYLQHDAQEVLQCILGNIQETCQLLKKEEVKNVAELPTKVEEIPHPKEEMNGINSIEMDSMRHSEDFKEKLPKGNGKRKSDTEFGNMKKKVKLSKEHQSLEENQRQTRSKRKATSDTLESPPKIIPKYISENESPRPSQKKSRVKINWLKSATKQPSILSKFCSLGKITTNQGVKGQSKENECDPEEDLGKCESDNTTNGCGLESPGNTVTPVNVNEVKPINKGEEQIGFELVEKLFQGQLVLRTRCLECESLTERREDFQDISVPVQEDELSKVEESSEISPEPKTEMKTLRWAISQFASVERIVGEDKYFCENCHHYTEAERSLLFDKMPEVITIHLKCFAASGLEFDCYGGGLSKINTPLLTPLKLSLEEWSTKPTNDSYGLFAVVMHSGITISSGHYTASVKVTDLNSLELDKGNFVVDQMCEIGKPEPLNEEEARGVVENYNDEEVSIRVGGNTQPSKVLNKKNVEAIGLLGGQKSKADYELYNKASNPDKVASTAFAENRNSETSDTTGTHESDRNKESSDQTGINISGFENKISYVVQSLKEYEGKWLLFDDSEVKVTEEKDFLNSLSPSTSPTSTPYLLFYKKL

The compounds below were run against Ubiquitin carboxyl-terminal hydrolase 1 (Homo sapiens) (UniProt O94782) (assay: Inhibitors of USP1/UAF1: Primary Screen). Settings: recombinant USP1/UAF1, Ub-Rhodamine cleavage fluorescence; activity change, negative = inhibition: at 57.1 µM (top of the series).
Outline: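 USP1/UAF1 complex at 1 nM was preincubated with compound for 15 min at room temperature, then Ub-Rho substrate (150nM final) was added. Fluorescence (480/540 nm) was read kinetically, 6 reads every 60 seconds.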
Further: nearly all actives have a fitted effect of over 60% in size.
On the % scale 0 is the no-effect control and ±100 the full control effect; potency means the concentration at half of the fitted maximal effect.

| Compound | Potency | activity change, negative = inhibition |
| --- | --- | --- |
| Cc1ccc(S(=O)(=O)Oc2ccccc2C=C2C(=O)N(C)C(=O)N(C)C2=O)cc1 | inactive | – |
| COc1cc([N+](=O)[O-])c2nc(C)ccc2c1[N+](=O)[O-] | inactive | – |
| Cc1c(C=C2C(=O)N(C)C(=S)N(C)C2=O)c2ccccc2n1CC(=O)NCC1CCCO1 (stereo not drawn) | – | inconclusive: -28.5% [inhibitor] |
| NC(N)=N/N=C/c1ccc(N(c2ccccc2)c2ccccc2)cc1 | inactive | – |
| COC(=O)C1=C(c2cccc(OCc3ccccc3)c2)C[C@@H]2CC[C@H]1N2C(=O)NCCCOC(C)C | inconclusive: 44.7 µM [inhibitor, single point] | – |
| COc1cc2c(cc1OC)-c1c(OC)c(OC)cc3c1[C@H](C2)N(C)CC3 | inconclusive: 25.1 µM [inhibitor, partial curve] | – |
| CN1C(=O)C(=Cc2cn(CC#N)c3ccccc23)C(=O)N(C)C1=O | inconclusive: 2 µM [inhibitor, full curve] | – |
| C=C1C(=O)O[C@@H]2C[C@@H](C)[C@@H]3C=CC(=O)[C@@]3(C)[C@@H](OC(=O)CC(=O)O[C@H]3[C@@H]4C(=C)C(=O)O[C@@H]4C[C@@H](C)[C@@H]4C=CC(=O)[C@]43C)[C@H]12 | inconclusive: 44.7 µM [inhibitor, partial curve] | – |
| O=C1C(=O)c2ccccc2-c2ccccc21 | active: 1 µM | – |
| COc1ccc(S(=O)(=O)N(C)C[C@H]2Oc3c(NC(=O)NC4CCCCC4)cccc3C(=O)N([C@H](C)CO)C[C@@H]2C)cc1 | inconclusive: 0.251 µM [inhibitor, full curve, poor fit] | – |
| C#CCN[C@H](C)Cc1ccccc1 | inconclusive: 1.26 µM [inhibitor, full curve] | – |
| O=C1C(=O)N(c2ccccc2)P(=O)(N(CCCl)CCCl)N1c1ccccc1 | inconclusive: 5.62 µM [inhibitor, partial curve] | – |
| COc1ccc(NC2=NCCCS2)cc1OC | inconclusive: 39.8 µM [inhibitor, partial curve, poor fit] | – |
| c1ccc(OCC2CO2)cc1 (stereo not drawn) | inconclusive: 25.1 µM [inhibitor, single point] | – |
| Cc1nc2c(=O)n(C)c(=O)nc-2n(C)n1 | active: 0.0316 µM | – |
| C#CCOCCOCCOCCNc1nc(N2CCN(C(=O)CCCCCCCCCCNC(=O)[C@H]([C@@H](C)CC)n3cc(CCCCN=C(N)N)nn3)CC2)nc(N2CCN(C(=O)CCCCCCCCCCNC(=O)[C@H](CO)n3cc(CCCCCN)nn3)CC2)n1 | inconclusive: 39.8 µM [inhibitor, partial curve] | – |
| Cc1ccc(-n2c(/C=C\c3ccc(F)c(F)c3)nc3ccccc3c2=O)c(C)c1 | inactive | – |
| COC(=O)c1ccccc1N=Cc1c(O)[nH]c(=O)[nH]c1=O | inactive | – |
| COc1cccc(-c2cc(C(F)(F)F)n3nc(C(=O)N4CCC5(CC4)OCCO5)cc3n2)c1 | inconclusive: 5.62 µM [inhibitor, partial curve] | – |
| C[C@]12CCC3C(C(=O)C[C@H]4C[C@@H](O)CC[C@]34C)C1CCC2=O (stereo partly drawn) | inconclusive: 50.1 µM [inhibitor, single point] | – |
| CN(C)c1ccc(C=C2C(=O)NC(=O)NC2=O)cc1 | inactive | – |

Molecules listed so far that contain fluorine:

| Compound | Potency | activity change, negative = inhibition |
| --- | --- | --- |
| Cc1ccc(-n2c(/C=C\c3ccc(F)c(F)c3)nc3ccccc3c2=O)c(C)c1 | inactive | – |
| COc1cccc(-c2cc(C(F)(F)F)n3nc(C(=O)N4CCC5(CC4)OCCO5)cc3n2)c1 | inconclusive: 5.62 µM [inhibitor, partial curve] | – |

(cont.)

| Compound | Potency | activity change, negative = inhibition |
| --- | --- | --- |
| CN(C)c1ccc(NC(=O)CN2C(=O)CN=C(c3ccccc3)c3cc(Cl)ccc32)cc1 | inconclusive: 28.2 µM [inhibitor, partial curve] | – |
| Cc1cc(/C=C2\C(=O)NC(=O)N(c3ccc(Br)cc3)C2=O)c(C)n1-c1cc(C(=O)O)cc(C(=O)O)c1 | inconclusive: 50.1 µM [inhibitor, partial curve, poor fit] | – |
| N=C1c2ccccc2CN1c1cccc([N+](=O)[O-])c1 | inactive | – |
| CN1CCN(C(=O)COc2ccc(S(=O)(=O)Nc3ccc(F)cc3)cc2)CC1 | inactive | – |
| Cc1ccc(NC(=O)CN2C(=O)CN=C(c3ccccc3)c3ccccc32)cc1Cl | inactive | – |
| Cc1ccccc1-n1c(-c2ccc([N+](=O)[O-])cc2)nc2ccccc2c1=O | inconclusive: 6.31 µM [inhibitor, partial curve, poor fit] | – |
| COC(=O)C1=CO[C@H](C)[C@H]2CN3CC[C@@]4(C(=O)Nc5ccccc54)[C@@H]3C[C@H]12 | inconclusive: 28.2 µM [inhibitor, partial curve] | – |
| CCSc1nnc(NC(=O)c2cccn(Cc3ccccc3Cl)c2=O)s1 | inactive | – |
| O=c1[nH]c(CN2CC=C(c3ccccc3)CC2)nc2scc(-c3cccs3)c12 | inconclusive: 31.6 µM [inhibitor, partial curve] | – |
| CC(C)CS(=O)(=O)C1=NN2C(=N)/C(=C\c3ccc(OC(=O)c4ccco4)cc3)C(=O)N=C2S1 | inconclusive: 44.7 µM [inhibitor, partial curve, poor fit] | – |
| COc1ccccc1CNC(=O)CCC1N=C2c3ccccc3N=C(SCc3cccc(Cl)c3)N2C1=O (stereo not drawn) | inconclusive: 28.2 µM [inhibitor, single point] | – |
| O=C1NC(=O)N(c2ccccc2)C(=O)/C1=C/c1ccc([N+](=O)[O-])s1 | active: 28.2 µM | – |
| Cc1ccc(Nc2nnc(-c3ccc(C)c(S(=O)(=O)NCc4nc5ccccc5[nH]4)c3)c3ccccc23)cc1 | inconclusive: 0.562 µM [inhibitor, full curve, poor fit] | – |
| COc1ccc([C@H]2CC(=O)C=C(c3ccc4c5c(cccc35)CC4)C2)cc1 | inconclusive: 0.251 µM [inhibitor, full curve, poor fit] | – |
| COC(=O)C1=C(c2ccc(-c3ccccc3)c(F)c2)C[C@@H]2CC[C@H]1N2C(=O)NC1CC1 | inconclusive: 0.355 µM [inhibitor, full curve, poor fit] | – |
| Oc1c(Cl)cc(Cl)cc1CN1CCN(Cc2ccccc2)CC1 | inactive | – |
| O=C1/C(=C/c2ccc3c(c2)OCO3)SC(=S)N1CCC(=O)N(CCO)c1ccccc1 | inconclusive: 44.7 µM [inhibitor, partial curve, poor fit] | – |
| CCCNC(=O)N1[C@H]2CC[C@@H]1C(C(=O)OC)=C(c1ccc(S(C)(=O)=O)cc1)C2 | inconclusive: 0.251 µM [inhibitor, full curve, poor fit] | – |
| Cc1c(N=Cc2c(O)n(Cc3ccccc3)c(=O)[nH]c2=O)c(=O)n(-c2ccccc2)n1C | inconclusive: 0.708 µM [inhibitor, full curve] | – |
| O=C(NCc1ccc(Cl)cc1)C(=O)NCC(c1cccnc1)N1CCN(c2ccccc2)CC1 (stereo not drawn) | inconclusive: 3.98 µM [inhibitor, single point] | – |
| COc1ccc(-n2c(/C=C3/C(=O)Nc4ccccc43)nc3ccccc3c2=O)cc1 | inconclusive: 56.2 µM [inhibitor, single point] | – |

| Compound | Potency | activity change, negative = inhibition |
| --- | --- | --- |
| COc1ccccc1N1CCN(Cc2cnc(-c3ccccc3)[nH]2)CC1 | inconclusive: 0.251 µM [inhibitor, full curve, poor fit] | – |
| O=c1[nH]c(=O)n(C2CCCCC2)c(O)c1/C=C/C=Nc1ccccc1 | inconclusive: 14.1 µM [inhibitor, partial curve] | – |
| O=C1NC(=S)NC(=O)C12C(c1ccccc1)NC(=S)NC2c1ccccc1 (stereo not drawn) | inconclusive: 5.62 µM [inhibitor, full curve, poor fit] | – |
| Cc1cc(N2CCCCC2)ccc1C=C1C(=O)N(C)C(=S)N(C)C1=O | inactive | – |
| CN1CC[C@@]2(C)c3cc(O)ccc3N(C)[C@@H]12 | active: 28.2 µM | – |
| COc1ccc(C(=O)N2CCC3(CC2)OCCO3)cc1 | inactive | – |
| COc1ccccc1NC(=O)Cn1c(=O)oc2cc(S(=O)(=O)N3CCCC3)ccc21 | inconclusive: 44.7 µM [inhibitor, partial curve, poor fit] | – |
| CN1CCN(c2ccc([N+](=O)[O-])c3cccnc23)CC1 | inactive | – |
| COc1ccccc1C1Nc2ccccc2-n2c(-c3ccccc3)c3c(=O)n(C)c(=O)n(C)c3c21 (stereo not drawn) | inconclusive: 1.58 µM [inhibitor, full curve, poor fit] | – |
| CCOC(=O)c1ccc(NC(=O)N2C[C@@H]3C[C@@H](C2)c2cccc(=O)n2C3)cc1 | inactive | – |
| C=CCN1C(=O)NC(=O)/C(=C/c2ccc(N(C)C)c(Br)c2)C1=O | inactive | – |
| NS(=O)(=O)c1cc(C2(O)NC(=O)c3ccccc32)ccc1Cl (stereo not drawn) | inconclusive: 28.2 µM [inhibitor, single point] | – |
| CCCN1CCC[C@@H](c2cccc(O)c2)C1 | inactive | – |
| Cc1ccc(S(=O)(=O)N[C@@H](CCCCN)C(=O)CCl)cc1 | inconclusive: 17.8 µM [inhibitor, partial curve] | – |
| O=C(Nc1ccc(F)c(Cl)c1)N(Cc1ccc2c(c1)OCO2)C1CCN(Cc2ccccc2)CC1 | inconclusive: 63.1 µM [inhibitor, partial curve, poor fit] | – |
| CC(C)(C)n1cc(C(=O)c2ccccc2OCCCF)cn1 | inactive | – |
| O=C(Cc1cc(=O)oc2cc(O)ccc12)NN=Cc1ccc(N(CCCl)CCCl)cc1 | inconclusive: 14.1 µM [inhibitor, partial curve] | – |
| CC(=O)O[C@@H]1[C@H]2CC[C@@H]3[C@]1(C[C@@H](OC(C)=O)[C@@]1(O)C([C@@H]4O[C@@H]4C1(C)C)[C@]3(C)O)C[C@@]2(C)O (stereo partly drawn) | inconclusive: 5.01 µM [inhibitor, partial curve] | – |
| c1ccc(CNc2c3c(nc4ccccc24)CCC3)cc1 | inactive | – |
| Cc1ccc(N2C(=O)NC(=O)/C(=C/c3ccoc3)C2=O)cc1 | inconclusive: 39.8 µM [inhibitor, single point] | – |
| CN(C)c1ccc(/C=C/C=C/c2sc3ccccc3[n+]2C)cc1 | inactive | – |
